Experimental data taken from publication PMC8924544.
These are yes or no findings as the source states them, for the method shown. Binding seen in cells or lysates may run through a third protein. Some binding calls cover weakened binding; strength is not graded here. Sequences can lack the tags named with a protein.

By UniProt entry, the sequences of proteins in these tests, tags left out.
UniProt Q94BT6: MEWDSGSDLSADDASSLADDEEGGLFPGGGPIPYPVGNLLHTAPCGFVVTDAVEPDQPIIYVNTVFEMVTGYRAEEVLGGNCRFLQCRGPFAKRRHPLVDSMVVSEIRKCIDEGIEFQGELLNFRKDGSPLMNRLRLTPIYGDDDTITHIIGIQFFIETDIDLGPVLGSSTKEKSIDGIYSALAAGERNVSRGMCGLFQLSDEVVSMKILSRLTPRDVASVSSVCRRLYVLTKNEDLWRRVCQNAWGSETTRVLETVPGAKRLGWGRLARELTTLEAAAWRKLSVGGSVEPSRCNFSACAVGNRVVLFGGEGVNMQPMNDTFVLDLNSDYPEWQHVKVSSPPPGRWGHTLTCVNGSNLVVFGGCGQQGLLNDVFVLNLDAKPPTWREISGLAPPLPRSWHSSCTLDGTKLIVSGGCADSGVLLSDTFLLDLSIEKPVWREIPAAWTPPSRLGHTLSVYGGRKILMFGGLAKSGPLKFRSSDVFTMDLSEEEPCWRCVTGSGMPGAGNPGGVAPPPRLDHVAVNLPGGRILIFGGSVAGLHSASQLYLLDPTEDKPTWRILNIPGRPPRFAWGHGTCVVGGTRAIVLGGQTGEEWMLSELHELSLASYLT

What was measured:
[1] = biological target: T1, OPEN STOMATA 1 (OST1), Myc-tagged (Arabidopsis thaliana) (UniProt Q940H6); experiment: co-IP; HA- and Myc-tagged proteins co-transfected in Arabidopsis Col-0 cell suspension protoplasts, harvested 18 h post-transfection; extract immunoprecipitated with anti-Myc antibody (9E10) and Protein G-Sepharose, 4°C; blots probed with anti-HA-POD, then anti-c-Myc
T1 sequence: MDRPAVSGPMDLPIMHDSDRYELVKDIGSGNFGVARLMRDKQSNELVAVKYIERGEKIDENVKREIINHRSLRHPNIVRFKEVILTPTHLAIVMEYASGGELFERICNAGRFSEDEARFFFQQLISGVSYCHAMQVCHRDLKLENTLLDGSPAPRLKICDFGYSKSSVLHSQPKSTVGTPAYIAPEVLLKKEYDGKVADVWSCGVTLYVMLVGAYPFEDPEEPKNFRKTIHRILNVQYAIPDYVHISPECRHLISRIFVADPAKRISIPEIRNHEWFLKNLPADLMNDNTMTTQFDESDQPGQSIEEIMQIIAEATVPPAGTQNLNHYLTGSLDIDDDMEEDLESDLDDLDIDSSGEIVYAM

[2] = biological target: T2, TIMING OF CAB2 EXPRESSION 1 (TOC1), epitope-tagged (Arabidopsis thaliana) (UniProt Q9LKL2); experiment: as above
T2 sequence: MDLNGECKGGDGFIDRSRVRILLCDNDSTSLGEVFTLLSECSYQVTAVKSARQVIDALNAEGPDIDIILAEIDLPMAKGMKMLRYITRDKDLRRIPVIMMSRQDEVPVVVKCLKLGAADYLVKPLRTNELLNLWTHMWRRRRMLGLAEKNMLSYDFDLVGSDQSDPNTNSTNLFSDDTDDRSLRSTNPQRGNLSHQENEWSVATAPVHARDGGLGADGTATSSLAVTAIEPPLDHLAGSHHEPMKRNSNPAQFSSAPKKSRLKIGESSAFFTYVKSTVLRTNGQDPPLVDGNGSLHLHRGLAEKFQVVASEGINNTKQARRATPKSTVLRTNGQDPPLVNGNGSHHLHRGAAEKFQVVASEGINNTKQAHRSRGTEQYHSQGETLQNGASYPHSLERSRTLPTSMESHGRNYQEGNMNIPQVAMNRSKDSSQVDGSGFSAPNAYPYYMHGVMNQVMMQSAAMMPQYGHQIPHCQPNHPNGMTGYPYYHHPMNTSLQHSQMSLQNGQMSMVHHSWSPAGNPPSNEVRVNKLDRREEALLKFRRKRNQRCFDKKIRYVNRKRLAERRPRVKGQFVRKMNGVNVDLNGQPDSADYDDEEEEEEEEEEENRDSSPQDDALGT

- binding [1]: binds
- binding [2]: binds
Sequence: ZEITLUPE (ZTL), HA-tagged (from UniProt Q94BT6 1-609)
